Like-named read-outs stand apart in the source and are kept apart here. At least one structure is not confirmed: it was looked up by name or label, or the drawing left a doubt.
How the values were obtained:
chronic PCP-treated rats [1] = conditions: cited from earlier work
chronic PCP-treated rats [2] = experiment: LCGU (2-DG) in chronic PCP rat model

Q: What does the source list for `CN1CCN(C2=Nc3cc(Cl)ccc3Nc3ccccc32)CC1` [clozapine]?
A: effect on PCP-induced hypofunction (chronic PCP-treated rats [1]; auditory structures, reported previously (Cochran et al., 2003)): reversed the PCP-induced hypofunction; effect on PCP-induced metabolic hypofunction (chronic PCP-treated rats [1]; prelimbic region of the prefrontal cortex, shown previously (Cochran et al., 2003)): failed to reverse; effect on PCP-induced hypofunction (chronic PCP-treated rats [1]; reticular nucleus of the thalamus, shown previously (Cochran et al., 2003)): failed to reverse; effect on PCP-induced metabolic hypofunction (LCGU) (chronic PCP-treated rats [2]; prelimbic region of the prefrontal cortex, chronic treatment): not by haloperidol or clozapine; effect on PCP-reduced local glucose utilisation (chronic PCP-treated rats [2]; ventral lateral lemniscus, chronic treatment (FIG. 4)): restored to normal values; effect on PCP-reduced local glucose utilisation (chronic PCP-treated rats [2]; ventral reticular thalamic nucleus, chronic treatment (FIG. 3)): not by haloperidol or clozapine

From patent publication US20060199978A1, “Compounds having serotonin 5-ht17 receptor antagonist activity and muscarinic m4 receptor agonist activity and their use in the treatment of psychotic disorders” (priority 2003, published 2006)
